According to patent US20120095058A1, “Method of preventing survival of retrovirally cells and of inhibiting formation of infectious retroviruses” (priority 2003, published 2012):
Some of these results come from one statement about several compounds together. At least one structure is not confirmed: it was looked up by name or label, or the drawing left a doubt.

Tested on: HIV-1 infected H9 cells
Experiment: Apoptosis of HIV-1 infected H9 cells by TUNEL flow cytometry
Type: cell-based, human
Conditions: within 20 hours, at 200 μM DEF or 40 μM CPX
Method: Methods: The drug deferiprone (DEF) and ciclopirox (CPX), known as DOHH inhibitors, were compared to the chelators 2-imidazoyl-4-methylphenol (IMP) and desferal (DES). Apoptosis of HIV-1 infected H9 cells, HPV-16 infected SiHa cells, and uninfected lymphocytes was analyzed by TUNEL flow cytometry. DOHH) activity was measured by metabolic labeling with 3H-spennidine.

`Cc1cc(C2CCCCC2)n(O)c(=O)c1` [ciclopirox, 6-cyclohexyl-l-hydroxy-4-methyl-2(1H)-pyridone] was tested, and the H9 cells apoptotic was “at least 30%”.
